{
  "source": "patent US6379083B1",
  "about": "“Method for the remediation of soil contaminated with organic halide compounds” (Hazama Corporation, priority 1998, dated 2002)",
  "assay": "Remediation action of carbonic acid aqueous solution on practical contaminated soil (Example 4)",
  "settings": "well for observation",
  "data": [
    {"smiles": "ClC=C(Cl)Cl", "note": "[trichloroethylene]", "values": [
      {"measurement": "TCE concentration", "setting": "December 2nd, Pouring of water and CO2", "value": 0.53, "unit": "mg/L"},
      {"measurement": "TCE concentration", "setting": "December 11th, Pouring of water and CO2", "value": 0.30, "unit": "mg/L"},
      {"measurement": "TCE concentration", "setting": "December 19th, Pouring of water and CO2", "value": 0.22, "unit": "mg/L"},
      {"measurement": "TCE concentration", "setting": "February 12th, Pouring of water and CO2 and termination", "value": 0.035, "unit": "mg/L"},
      {"measurement": "TCE concentration", "setting": "January 5th, Pouring of water and CO2", "value": 0.18, "unit": "mg/L"},
      {"measurement": "TCE concentration", "setting": "January 20th, Pouring of water", "value": 0.057, "unit": "mg/L"},
      {"measurement": "TCE concentration", "setting": "November 2nd, Pouring of water", "value": 0.037, "unit": "mg/L"},
      {"measurement": "TCE concentration", "setting": "November 5th, Pouring of water", "value": 0.043, "unit": "mg/L"},
      {"measurement": "TCE concentration", "setting": "November 7th, Pouring of water", "value": 0.054, "unit": "mg/L"},
      {"measurement": "TCE concentration", "setting": "November 13th, Pouring of water and CO2", "value": 0.12, "unit": "mg/L"},
      {"measurement": "TCE concentration", "setting": "November 20th, Pouring of water and CO2", "value": 0.36, "unit": "mg/L"},
      {"measurement": "TCE concentration", "setting": "November 26th, Pouring of water", "value": 0.39, "unit": "mg/L"}
    ]}
  ]
}
